For the experiment, the target named is human TMEFF1 extracellular domain recombinant protein (plasmid BBP377, S40-V330, C-terminal 8xHis) (human) (UniProt Q8IYR6). In words: BLI (Octet Red), His-tagged TMEFF1 ECD and deletion mutants on anti-Penta-His biosensors, unpurified recombinant antibody.

By UniProt entry, the sequences of proteins in these tests, tags left out. Where a name states a change or a piece, a line headed by the entry shows the natural chain unless it says otherwise.
UniProt Q8IYR6: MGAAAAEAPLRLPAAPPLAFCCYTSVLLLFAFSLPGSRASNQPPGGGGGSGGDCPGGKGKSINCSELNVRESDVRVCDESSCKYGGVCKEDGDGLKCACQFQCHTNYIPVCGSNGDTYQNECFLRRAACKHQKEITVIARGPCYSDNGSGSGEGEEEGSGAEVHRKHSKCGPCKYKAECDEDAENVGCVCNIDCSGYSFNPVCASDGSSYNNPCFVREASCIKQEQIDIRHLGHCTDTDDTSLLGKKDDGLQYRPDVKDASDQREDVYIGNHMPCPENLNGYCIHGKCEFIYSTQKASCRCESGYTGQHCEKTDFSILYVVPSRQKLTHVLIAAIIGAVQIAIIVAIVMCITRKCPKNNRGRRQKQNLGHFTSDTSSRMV

These are yes or no findings as the source states them, for the method shown. Some results given as binding are weak or reduced against the parent protein; the word gives no strength.

B1: M35hA10 (antibody, human IgG1, V domains shown)
VH: QVQLQESGPGLVKPSGTLSLTCAVSGGSISSSNWWSWVRQPPGKGLEWIGEIYHSGSTNYNPSLKSRVTISVDKSKNQFSLKLSSVTAADTAVYYCATMVRGRYYYYGMDVWGQGTTVTVSS
VL: DIVMTQSPLSLPVTPGEPASISCRSSQSLLHSDGYNFLDWYLQKPGQSPQFLIYLGSNRASGVPDRFSGVGSGTDFTLQISRVEAEDFGVYYCMQALQAPWTFGQGTKLEIK
Regarding B1, the binding result was “binds”.

These data come from patent publication US20200109194A1.
